Experimental data as given in patent US20240247048A1 (EMORY UNIVERSITY, priority 2021, published 2024).
Some entries share one result that the patent states for a list of compounds. Some compounds share one range, which may span the group rather than tell each member.

Test system: human T cells
Experiment: activation of healthy-donor human T cells (anti-CD3), marker expression by flow cytometry
Format: cell-based
Conditions: 6 hours, peptide 3 uM, 6 healthy donors; FIG. 10A
Experimental: Mean value from ‘Activated’ group shown with dotted line (---) for comparison. Responses from same healthy donors are shown with same color dots. Error bars are computed as the standard error of the mean (SEM) from 6 healthy donor samples.
This study adopted an ex-vivo system using human T cells isolated from healthy donors to screen for novel VIP-R antagonist peptides. Human T cells were cultured over 6 or 24 hours with activation in the presence or absence of peptides and were assessed for percent CD69 surface expression by flow cytometry to measure the state of T cell activation. The activity of the peptides was determined by percent increase in CD69 expression relative to no peptide control. […] Thus far, all screenings were performed using murine T cells, however, this study reports an alternative screening method using human T cells, which allows robust results within 24 hours that informs the activity of peptides on different human T cell subtypes. […] All donors, represented with dots of same color, show an increase in CD69 expression at 6 hours in the antagonist-treated group despite the donor-to-donor variability. […] The activity of the antagonists to stimulate T cells is further shown to be maintained at 24 hour, an effect which is more prominent in the CD4+ T cells compared to CD8+ T cells (FIG. 10B). However, the results also indicate that VS1 peptide stimulates T cells compared to no-peptide control by ˜3%, although lower than the three antagonists on question. We also observed that amongst the donors, most were classified as average responders, with measured value for CD69 expression within the error bars while two others had measured values outside the error bars, one sample reflecting a super-responder (purple dots) and one sample reflecting a slow-responder (green dots) (FIGS. 10A and 10B). […]
Human T cell activation and expansion. […] Cells were counted using Trypan blue dye and phenotyped via flow cytometry on day 9. […]

KPRRPYTVNYTSLRKQIAVKKYLMLILN [ANT195]
increase in the mean CD69 expression relative to no-peptide control: 10 to 15%

KPRRPYTSDYTRLRKQMAVKKYLNLILN [ANT308]
increase in the mean CD69 expression relative to no-peptide control: 10 to 15%

KPRRPYTDNYTRLRKQMAVKKYLNLILN [ANT008]
increase in the mean CD69 expression relative to no-peptide control: 10 to 15%
